Test results from article PMC8623398, “Investigation of the Mechanisms of Cytotoxic Activity of 1,3-Disubstituted Thiourea Derivatives” (Pharmaceuticals, 2021).

Experiments:
Format in all cases: cell-based, human
[1] = system: PC3 cells; experiment: MTT assay, PC3; settings: SI = IC50 normal cell line (HaCaT)/IC50 cancer cell line
Description: (§1) As a first step in assessing their cytotoxic properties, all thioureas of the series were assayed against four human carcinoma cell lines, such as SW480 (primary colon cancer), SW620 (metastatic colon cancer), PC3 (metastatic prostate cancer), and K-562 (chronic myelogenous leukemia), as well as against the normal cell line HaCaT (immortalized human keratinocytes). Table 1 lists the compound concentrations that produced 50% of growth inhibition (IC50, μM), generated by the MTT method, in comparison with two commonly used chemotherapeutic agents, doxorubicin and cisplatin.
(§2) The human primary (SW480), metastatic (SW620) colon cancer, metastatic prostate cancer (PC3), chronic myelogenous leukemia (K-562), and human immortal keratinocyte (HaCaT) cell lines were purchased from the American Type Culture Collection (ATCC, Rockville, MD, USA). The cells were cultured in medium according to protocols (MEM for SW480 and SW620, RPMI 1640 for PC3 and K-562, and DMEM for HaCaT cells), supplemented with 10% FBS, penicillin (100 U/mL) and streptomycin (100 μg/mL), and cultured in a 37 °C/5% CO2 humidified incubator. The cells were cultured until appropriate confluence was achieved (80–90%). Next, they were harvested by treatment with 0.25% trypsin (Gibco Life Technologies, Waltham, MA, USA) excluding the non-adherent K-562 cell line and used for studies.
(§3) Cells without the studied compounds in medium were used as a control.
(§4) The cell viability was assessed by determination of MTT salt [3-(4,5-dimethylthiazol-2-yl)-2,5-diphenyltetrazoliumbromide] conversion by mitochondrial dehydrogenase. The MTT assay was performed as previously described. Alternatively, non-adherent leukemic cells were centrifuged in a microplate centrifuge (400× g, 5 min) during the collection stages. Experiments were repeated three times. Cell viability was presented as a percent of MTT reduction in the treated cells versus the control cells. The number of viable cells cultured without the studied compounds was assumed as 100%. A decreased relative MTT level indicated decreased cell viability. Thiourea compounds with the highest cytotoxic potential assessed by MTT determination (with the lowest IC50) were chosen for subsequent assessments of cytotoxicity mechanisms.

[2] = system: SW480 cells; experiment: MTT assay, SW480; settings: SI = IC50 normal cell line (HaCaT)/IC50 cancer cell line
Description: as §1, §2, §3, §4

[3] = system: K-562 cells; experiment: MTT assay, K562; settings: SI = IC50 normal cell line (HaCaT)/IC50 cancer cell line
Description: as §1, §2, §3, §4

[4] = system: SW620 cells; experiment: MTT assay, SW620; settings: for SI SW620: SI = IC50 normal cell line (HaCaT)/IC50 cancer cell line
Description: as §1, §2, §3, §4

Fc1ccc(NC(=S)Nc2cccc(C(F)(F)F)c2)cc1Cl [Compound 1, 1-(3-chloro-4-fluorophenyl)-3-[3-(trifluoromethyl)phenyl]thiourea]
SI PC3 [1]: 0.8 | SI SW480 [2]: 3.4 | SI K562 [3]: 6.4 | SI SW620 [4]: 4.6

FC(F)(F)c1cccc(NC(=S)Nc2ccc(Cl)c(Cl)c2)c1 [Compound 2, 1-(3,4-dichlorophenyl)-3-[3-(trifluoromethyl)phenyl]thiourea]
SI PC3 [1]: 0.8 | SI SW480 [2]: 2.7 | SI K562 [3]: 3.9 | SI SW620 [4]: 16.5 | SI relative to cisplatin (times higher) ([4]; SW620): 18 | potency relative to cisplatin (times stronger) ([4]; SW620, IC50 compared with cisplatin): up to 4.5

FC(F)(F)c1cccc(NC(=S)Nc2ccc(Cl)cc2Cl)c1 [Compound 3, 1-(2,4-dichlorophenyl)-3-[3-(trifluoromethyl)phenyl]thiourea]
SI SW480 [2]: 1.7 | SI K562 [3]: 1.0 | SI SW620 [4]: 9.0

Cc1c(Cl)cccc1NC(=S)Nc1cccc(C(F)(F)F)c1 [Compound 5, 1-(3-chloro-2-methylphenyl)-3-[3-(trifluoromethyl)phenyl]thiourea]
SI PC3 [1]: 1.1 | SI SW480 [2]: 7.6 | SI K562 [3]: 1.1 | SI SW620 [4]: 2.4

FC(F)(F)c1cccc(NC(=S)Nc2ccccc2C(F)(F)F)c1 [Compound 7, 1-[2-(trifluoromethyl)phenyl]-3-[3-(trifluoromethyl)phenyl]thiourea]
SI PC3 [1]: 3.8 | SI SW480 [2]: 0.7 | SI K562 [3]: 0.9 | SI SW620 [4]: 2.2

FC(F)(F)c1ccc(NC(=S)Nc2cccc(C(F)(F)F)c2)cc1 [Compound 8, 1-[3-(trifluoromethyl)phenyl]-3-[4-(trifluoromethyl)phenyl]thiourea]
SI SW480 [2]: 4.6 | SI K562 [3]: 0.8 | SI SW620 [4]: 5.4

FC(F)(F)c1cccc(NC(=S)Nc2ccc(Cl)cc2)c1 [Compound 9, 1-(4-chlorophenyl)-3-[3-(trifluoromethyl)phenyl]thiourea]
SI PC3 [1]: 3.2 | SI SW480 [2]: 1.9 | SI K562 [3]: 7.4 | SI SW620 [4]: 10.7

N#Cc1ccc(NC(=S)Nc2cccc(C(F)(F)F)c2)cc1 [Compound 10, 1-(4-cyanophenyl)-3-[3-(trifluoromethyl)-phenyl]thiourea]
SI PC3 [1]: 0.8 | SI SW480 [2]: 2.4 | SI K562 [3]: 3.9 | SI SW620 [4]: 2.7

FC(F)(F)c1cccc(NC(=S)NCCc2ccccc2)c1 [Compound 12, 1-(2-phenylethyl)-3-[3-(trifluoromethyl)-phenyl]thiourea]
SI PC3 [1]: 2.1 | SI SW480 [2]: 2.2 | SI K562 [3]: 2.3 | SI SW620 [4]: 1.5

COc1cccc2c1C(=O)c1c(O)c3c(c(O)c1C2=O)C[C@@](O)(C(=O)CO)C[C@@H]3O[C@H]1C[C@H](N)[C@H](O)[C@H](C)O1 [Doxorubicin, reference compound]
SI PC3 [1]: 1.0 | SI SW480 [2]: 0.4 | SI K562 [3]: 1.5 | SI SW620 [4]: 1.0
